Results are given in words; binding and its absence hold for the method and conditions named.
Target: CENP-T^6D (CENP-T^6D-GFP-Spy-tag) (human, UniProt Q96BT3 1-242, T11D | T27D | S47D | T85D | T195D | S201D)
Experiment: TIRF microscopy of single molecules

The chains behind the UniProt entries cited, without tags or fusion partners. Where a name states a change or a piece, a line headed by the entry shows the natural chain unless it says otherwise. A line that says so, or that is headed by a name, gives the form on record, which may keep a tag or linker.
CENP-T^6D (CENP-T^6D-GFP-Spy-tag) (Q96BT3, form named): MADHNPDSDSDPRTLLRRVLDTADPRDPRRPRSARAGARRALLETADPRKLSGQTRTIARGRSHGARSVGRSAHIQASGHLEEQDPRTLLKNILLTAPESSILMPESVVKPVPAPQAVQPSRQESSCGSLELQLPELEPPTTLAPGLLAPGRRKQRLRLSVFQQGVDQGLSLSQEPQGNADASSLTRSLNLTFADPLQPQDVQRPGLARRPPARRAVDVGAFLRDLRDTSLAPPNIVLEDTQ
UniProt O14777: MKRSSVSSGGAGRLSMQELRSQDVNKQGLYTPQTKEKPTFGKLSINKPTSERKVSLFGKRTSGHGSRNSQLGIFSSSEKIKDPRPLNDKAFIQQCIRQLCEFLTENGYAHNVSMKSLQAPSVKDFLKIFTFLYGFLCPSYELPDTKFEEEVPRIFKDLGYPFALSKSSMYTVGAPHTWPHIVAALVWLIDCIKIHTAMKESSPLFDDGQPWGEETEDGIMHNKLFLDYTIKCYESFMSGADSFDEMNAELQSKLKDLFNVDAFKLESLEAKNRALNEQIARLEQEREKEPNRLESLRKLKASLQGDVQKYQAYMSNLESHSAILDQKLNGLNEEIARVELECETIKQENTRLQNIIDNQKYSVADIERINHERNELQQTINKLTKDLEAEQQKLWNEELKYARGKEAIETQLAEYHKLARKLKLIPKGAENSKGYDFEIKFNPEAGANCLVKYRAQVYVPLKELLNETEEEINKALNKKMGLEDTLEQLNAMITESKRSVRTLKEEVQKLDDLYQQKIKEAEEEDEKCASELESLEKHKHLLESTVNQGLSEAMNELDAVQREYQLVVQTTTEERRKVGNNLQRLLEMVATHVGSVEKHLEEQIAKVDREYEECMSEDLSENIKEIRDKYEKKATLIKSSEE

binding: no binding (tested: 200 nM)
Substance: Human Ndc80 ΔSpc24/25 complex (from UniProt O14777 1-506; Q9BZD4 1-348)

Reference: article doi:10.1101/2024.02.25.581584 (bioRxiv, 2024)
